# The supplement of paper PMC12067093, “Discovery and optimisation of a covalent ligand for TRIM25 and its application to targeted protein ubiquitination” (Chemical Science, 2025)
# Protein sequences, listed by entry. Tags and fused reporters are not part of them. Lines headed by an entry give the natural chain unless they say otherwise; changes in a name come on top.
# UniProt Q9BZQ8: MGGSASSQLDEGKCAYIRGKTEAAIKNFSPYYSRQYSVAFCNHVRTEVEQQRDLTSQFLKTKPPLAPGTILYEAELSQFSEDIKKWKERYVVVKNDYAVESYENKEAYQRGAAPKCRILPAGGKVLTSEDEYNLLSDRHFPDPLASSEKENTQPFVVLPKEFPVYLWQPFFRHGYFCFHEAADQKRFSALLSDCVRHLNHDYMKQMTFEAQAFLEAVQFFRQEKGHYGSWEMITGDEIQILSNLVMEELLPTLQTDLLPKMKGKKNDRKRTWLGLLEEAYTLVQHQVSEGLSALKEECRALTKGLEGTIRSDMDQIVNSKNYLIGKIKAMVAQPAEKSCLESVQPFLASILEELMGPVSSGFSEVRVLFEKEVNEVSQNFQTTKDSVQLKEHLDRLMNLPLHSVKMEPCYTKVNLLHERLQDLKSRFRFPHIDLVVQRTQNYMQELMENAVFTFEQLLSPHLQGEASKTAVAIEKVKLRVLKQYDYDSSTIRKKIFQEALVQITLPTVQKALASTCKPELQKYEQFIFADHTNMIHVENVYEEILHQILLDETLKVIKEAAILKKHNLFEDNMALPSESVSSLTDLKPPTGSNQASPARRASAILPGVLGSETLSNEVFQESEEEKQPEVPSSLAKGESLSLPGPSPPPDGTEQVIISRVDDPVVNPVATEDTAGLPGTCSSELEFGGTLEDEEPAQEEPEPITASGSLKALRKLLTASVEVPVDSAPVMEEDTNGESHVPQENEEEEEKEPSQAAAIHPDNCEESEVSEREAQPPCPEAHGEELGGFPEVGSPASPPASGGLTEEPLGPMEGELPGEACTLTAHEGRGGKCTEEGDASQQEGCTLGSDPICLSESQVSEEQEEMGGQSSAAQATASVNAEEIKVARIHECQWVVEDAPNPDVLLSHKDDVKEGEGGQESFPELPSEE
# UniProt P22087: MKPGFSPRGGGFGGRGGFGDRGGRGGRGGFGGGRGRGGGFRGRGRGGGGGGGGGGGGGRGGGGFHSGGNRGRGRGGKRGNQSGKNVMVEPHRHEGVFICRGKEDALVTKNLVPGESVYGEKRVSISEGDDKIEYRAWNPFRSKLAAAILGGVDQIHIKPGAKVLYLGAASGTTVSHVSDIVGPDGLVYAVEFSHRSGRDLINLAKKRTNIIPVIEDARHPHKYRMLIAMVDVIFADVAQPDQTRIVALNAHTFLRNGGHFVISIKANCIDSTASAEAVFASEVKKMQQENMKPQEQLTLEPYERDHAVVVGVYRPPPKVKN
# UniProt Q9BSK4: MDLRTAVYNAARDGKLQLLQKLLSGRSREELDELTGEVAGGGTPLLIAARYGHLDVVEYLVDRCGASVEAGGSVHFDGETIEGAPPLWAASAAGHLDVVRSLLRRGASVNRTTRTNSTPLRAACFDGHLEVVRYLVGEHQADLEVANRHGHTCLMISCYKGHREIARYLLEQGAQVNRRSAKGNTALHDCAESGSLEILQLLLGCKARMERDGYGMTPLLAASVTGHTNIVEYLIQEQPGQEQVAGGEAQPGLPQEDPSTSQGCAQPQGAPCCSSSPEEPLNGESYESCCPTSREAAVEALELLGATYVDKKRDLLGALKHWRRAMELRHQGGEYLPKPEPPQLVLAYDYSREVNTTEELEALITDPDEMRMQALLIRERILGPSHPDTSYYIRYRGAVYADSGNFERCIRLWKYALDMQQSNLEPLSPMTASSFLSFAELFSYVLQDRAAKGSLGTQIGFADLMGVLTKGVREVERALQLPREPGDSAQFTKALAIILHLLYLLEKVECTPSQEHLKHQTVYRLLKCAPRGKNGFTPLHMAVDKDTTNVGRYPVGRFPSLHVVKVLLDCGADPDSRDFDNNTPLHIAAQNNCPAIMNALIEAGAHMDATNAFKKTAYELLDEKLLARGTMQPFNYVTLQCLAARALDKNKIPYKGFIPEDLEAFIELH
# UniProt Q9NSD9: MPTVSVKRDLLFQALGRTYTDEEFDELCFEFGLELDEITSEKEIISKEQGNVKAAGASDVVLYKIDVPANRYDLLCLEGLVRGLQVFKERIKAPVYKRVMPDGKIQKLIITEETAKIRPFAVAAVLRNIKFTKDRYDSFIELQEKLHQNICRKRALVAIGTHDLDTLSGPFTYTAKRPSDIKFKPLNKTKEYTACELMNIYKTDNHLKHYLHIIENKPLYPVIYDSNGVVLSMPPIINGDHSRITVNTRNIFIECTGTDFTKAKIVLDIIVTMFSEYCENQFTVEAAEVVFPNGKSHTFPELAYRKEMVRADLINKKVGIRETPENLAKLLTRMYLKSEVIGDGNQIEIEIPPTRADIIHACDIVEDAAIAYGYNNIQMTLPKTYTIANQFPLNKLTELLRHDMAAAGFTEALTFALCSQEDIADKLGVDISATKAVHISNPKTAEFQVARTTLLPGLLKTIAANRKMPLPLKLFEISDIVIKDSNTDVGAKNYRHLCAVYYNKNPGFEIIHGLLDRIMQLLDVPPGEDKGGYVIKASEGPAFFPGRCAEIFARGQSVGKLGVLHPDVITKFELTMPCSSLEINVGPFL
# UniProt Q6PIJ6: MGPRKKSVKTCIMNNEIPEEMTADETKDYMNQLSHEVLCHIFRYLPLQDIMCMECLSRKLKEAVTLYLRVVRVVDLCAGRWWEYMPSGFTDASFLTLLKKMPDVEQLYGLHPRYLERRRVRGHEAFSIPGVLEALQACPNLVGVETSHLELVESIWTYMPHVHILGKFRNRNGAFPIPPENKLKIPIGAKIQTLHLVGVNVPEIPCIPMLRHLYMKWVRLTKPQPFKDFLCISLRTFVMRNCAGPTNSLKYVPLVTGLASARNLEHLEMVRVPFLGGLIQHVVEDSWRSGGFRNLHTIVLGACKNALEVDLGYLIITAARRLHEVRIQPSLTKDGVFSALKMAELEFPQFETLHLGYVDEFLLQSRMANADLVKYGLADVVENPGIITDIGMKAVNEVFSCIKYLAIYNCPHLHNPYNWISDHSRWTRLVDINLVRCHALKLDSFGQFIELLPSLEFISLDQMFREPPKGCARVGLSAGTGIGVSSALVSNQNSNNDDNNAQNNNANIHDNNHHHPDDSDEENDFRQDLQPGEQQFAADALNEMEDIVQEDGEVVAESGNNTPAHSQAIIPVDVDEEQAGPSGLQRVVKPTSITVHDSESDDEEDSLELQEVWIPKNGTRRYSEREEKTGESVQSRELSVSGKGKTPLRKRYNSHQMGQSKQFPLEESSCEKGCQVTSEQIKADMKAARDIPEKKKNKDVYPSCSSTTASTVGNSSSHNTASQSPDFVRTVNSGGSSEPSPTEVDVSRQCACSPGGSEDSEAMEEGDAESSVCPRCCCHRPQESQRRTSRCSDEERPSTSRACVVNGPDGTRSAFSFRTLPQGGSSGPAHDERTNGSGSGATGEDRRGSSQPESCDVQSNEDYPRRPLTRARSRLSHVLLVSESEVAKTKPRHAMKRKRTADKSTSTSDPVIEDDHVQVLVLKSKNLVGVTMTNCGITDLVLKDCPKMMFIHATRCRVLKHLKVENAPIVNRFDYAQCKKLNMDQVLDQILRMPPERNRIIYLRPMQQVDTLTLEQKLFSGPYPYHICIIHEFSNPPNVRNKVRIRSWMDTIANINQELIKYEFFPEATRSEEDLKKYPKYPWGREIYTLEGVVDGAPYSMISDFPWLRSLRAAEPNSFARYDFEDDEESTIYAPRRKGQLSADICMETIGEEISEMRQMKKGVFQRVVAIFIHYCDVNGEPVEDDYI
# UniProt Q9UK73, whole entry, looked up: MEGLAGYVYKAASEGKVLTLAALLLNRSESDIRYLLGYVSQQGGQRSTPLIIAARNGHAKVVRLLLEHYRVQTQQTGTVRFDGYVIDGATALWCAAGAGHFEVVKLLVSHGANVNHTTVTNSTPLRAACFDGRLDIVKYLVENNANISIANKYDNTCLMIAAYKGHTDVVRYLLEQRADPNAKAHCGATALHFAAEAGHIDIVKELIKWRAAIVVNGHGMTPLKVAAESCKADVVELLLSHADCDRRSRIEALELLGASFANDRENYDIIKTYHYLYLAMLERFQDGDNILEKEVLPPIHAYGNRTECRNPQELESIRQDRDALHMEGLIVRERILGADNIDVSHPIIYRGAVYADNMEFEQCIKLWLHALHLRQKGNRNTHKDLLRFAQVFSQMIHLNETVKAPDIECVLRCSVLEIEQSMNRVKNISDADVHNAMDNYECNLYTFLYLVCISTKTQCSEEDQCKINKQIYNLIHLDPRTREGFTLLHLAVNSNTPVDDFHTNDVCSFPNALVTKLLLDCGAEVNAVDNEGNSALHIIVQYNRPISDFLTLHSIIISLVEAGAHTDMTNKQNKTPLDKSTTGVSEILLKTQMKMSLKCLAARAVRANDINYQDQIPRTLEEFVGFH
# UniProt Q9Y324: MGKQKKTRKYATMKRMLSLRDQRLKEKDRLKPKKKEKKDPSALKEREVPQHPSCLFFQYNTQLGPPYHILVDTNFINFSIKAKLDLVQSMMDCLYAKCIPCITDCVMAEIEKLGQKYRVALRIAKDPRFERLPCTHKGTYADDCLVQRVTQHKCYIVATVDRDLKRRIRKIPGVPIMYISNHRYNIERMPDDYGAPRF
# This is one part of the list.
# Compound: CC1Cc2ccccc2N1C(=O)C1CCCN(C1)C(=O)CCl (mixture of isomers) [TRIM25 ligand 11 (diastereomer mixture)]
# Assay: probe-labelled cysteine peptide fold change vs DMSO (competition) (log2 fold change); higher = less target engagement (more negative = stronger competition)
# Conditions: THP-1, incubation time: 4 h
# 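Further: competitive chemoproteomic profiling in live THP-1 cells with an iodoacetamide desthiobiotin (IA-DTB) probe, comparing probe-labelled peptide intensities in compound-treated cells against DMSO-treated controls.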
Target,probe-labelled cysteine peptide fold change (10 µM),probe-labelled cysteine peptide fold change (50 µM)
FAM129A_Q9BZQ8_516_ALASTCKPELQK (UniProt Q9BZQ8),0.00794,-0.0291
FBL_P22087_99_HEGVFICR (UniProt P22087),0.0275,0.0186
FEM1A_Q9BSK4_124_AACFDGHLEVVR (UniProt Q9BSK4),0.0873,0.0865
FBXW8_Q8N3Y1_214_GAVSELEHVPDTVLCDVHSHDGVVIAGYTSGDVR (UniProt Q8N3Y1),0.16,0.103
FARSB_Q9NSD9_151_LHQNICR (UniProt Q9NSD9),-0.108,-0.0522
FBLN1_P23142_494_RGYQLSDVDGVTCEDIDECALPTGGHICSYR (UniProt P23142),0.372,0.293
FBXO38_Q6PIJ6_303_NLHTIVLGACK (UniProt Q6PIJ6),-0.0863,-0.107
FAM160B1_Q5W0V3_78_APVTDTNIPSHLEQMLDILVQEENERESGETGPCMEYLLHHK (UniProt Q5W0V3),0.212,0.28
FEM1B_Q9UK73_409_APDIECVLR (UniProt Q9UK73),-0.111,-0.27
FBL_P22087_268_ANCIDSTASAEAVFASEVK (UniProt P22087),-0.0913,0.287
FARSB_Q9NSD9_418_HDMAAAGFTEALTFALCSQEDIADK (UniProt Q9NSD9),-0.0351,-0.0054
FCF1_Q9Y324_93_LDLVQSMMDCLYAK (UniProt Q9Y324),0.136,0.138
FCHSD2_O94868_304_DYNLQLFLQENAVFHKPQPFQFQPCDSDTSR (UniProt O94868),-0.119,0.0239
